This experiment concerns the target myc-tagged RicA (Brucella abortus) (UniProt Q2YQG1). Briefly: co-IP; […] (20 mM Tris-HCl pH 7.5, 150 mM NaCl, 2 mM MgCl2, 0.5% Triton X-100); […].

Sequences of proteins named here, by UniProt entry; tags and fusion partners are left off. A change or cut given only in a name is not applied to a line headed by its entry.
UniProt Q2YQG1: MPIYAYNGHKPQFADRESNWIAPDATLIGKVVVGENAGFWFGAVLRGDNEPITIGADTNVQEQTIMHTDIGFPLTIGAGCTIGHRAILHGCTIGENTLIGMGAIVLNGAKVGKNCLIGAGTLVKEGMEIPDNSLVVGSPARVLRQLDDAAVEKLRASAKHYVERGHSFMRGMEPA
UniProt P61019: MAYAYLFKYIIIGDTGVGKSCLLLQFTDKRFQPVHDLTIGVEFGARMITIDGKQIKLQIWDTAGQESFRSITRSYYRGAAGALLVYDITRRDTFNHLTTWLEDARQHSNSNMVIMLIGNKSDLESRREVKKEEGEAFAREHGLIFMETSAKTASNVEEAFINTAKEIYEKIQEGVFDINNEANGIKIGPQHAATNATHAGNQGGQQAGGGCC

Binding data for one substance are collected here from PMC7157780.

Results are given in words; binding and its absence hold for the method and conditions named. Binding seen in cells or lysates may run through a third protein. Binding can be weak; no strength is given.

Consider “GFP-tagged Rab2a, wild type (from UniProt P61019 1-212)”, for which the binding result is reported as “binds”.
